In patent publication US5654274A, “Biologically active peptides having N-terminal substitutions” (priority 1995, dated 1997):
Part of at least one peptide drawing is inferred or uncertain, most often the ends. Square brackets hold non-standard residues; d marks the D form. Peptide text beside a SMILES is read from it. * marks the point of attachment. Octanoyl = CCCCCCCC(=O)*; Orn = NCCC[C@H](N)C(=O)O

Experiment: Inhibition of lipopolysaccharide binding to dye (LPS50)
Set-up: species or system E. coli
Details: concentration of peptide necessary to inhibit the binding of 50% of the lipopolysaccharide to the dye; absorbance at 460 nm and 510 nm
Method: A stock solution (10×) of 0.6 mM dye is prepared by adding 1.68 mg of (1-ethyl-2-(3-[1-ethylnaphthol(1,2-d)- thiazolin-2-ylidene]-2-methylpropenyl)naphtho-(1,2-d)-thiazolium bromide (Signa E-7762) to 5 ml of 200 proof ethanol. 1 ml of this solution was added to 9 ml ethanol to give 0.06 mM of dye (60 μM dye).
A stock solution of lipopolysaccharide (LPS) from E. coli serotype 0111:B4 was prepared at 1.5 mg/ml. 400 μl of this solution was mixed with 4.6 ml pyrogen free water to give a 120 μg/ml solution.
Row 1 and rows 3 through 12 of a microtiter plate were filled with 100 μl of pyrogen free water or with 10 mg/ml of bovine serum albumin. 200 μl of peptide then is added to row 2 of the microtiter plate at a concentration of […]. 200 μl of pyrogen free water is added to each of the control wells in two lanes (having dye and LPS but no peptide or having dye and no LPS and no peptide). 100 μl then is serially diluted from row 2 through row 12 of the microtiter plate. 50 μl of PBS (pH 7.4) and 50 μl of the LPS solution then are added to row 1 of the plate (blank wells). […]
The plate is incubated for 10 minutes at room temperature in the dark, and the absorbance at 460 nm and 510 nm is read. From these absorbances, the LPS50 value, which is the concentration in mg/ml of peptide necessary to inhibit the binding of 50% of the lipopolysaccharide to the dye, is calculated.

SMILES | LPS50 [µg/mL]
CCCCCCCC(=O)N[C@@H](CC(C)C)C(=O)N[C@@H](CCCN)C(=O)N[C@@H](CCCN)C(=O)N[C@@H](CC(C)C)C(=O)N[C@@H](CC(C)C)C(=O)N[C@@H](CCCN)C(=O)N[C@@H](CCCN)C(=O)N[C@@H](CC(C)C)C(=O)N[C@@H](CCCN)C(=O)N[C@@H](CCCN)C(=O)N[C@@H](CC(C)C)C(N)=O [Oct-(SEQ ID NO: 142)-NH2] (Octanoyl-L[Orn][Orn]LL[Orn][Orn]L[Orn][Orn]L-NH2) | 0.70
CCCCCCCC(=O)N[C@@H](CCCN)C(=O)N[C@@H](CCCN)C(=O)N[C@@H](CC(C)C)C(=O)N[C@@H](CC(C)C)C(=O)N[C@@H](CCCN)C(=O)N[C@@H](CCCN)C(=O)N[C@@H](CC(C)C)C(=O)N[C@@H](CCCN)C(=O)N[C@@H](CCCN)C(=O)N[C@@H](CC(C)C)C(N)=O [Oct-(SEQ ID NO: 143)-NH2] (Octanoyl-[Orn][Orn]LL[Orn][Orn]L[Orn][Orn]L-NH2) | 0.90
